Data taken from ChEMBL document CHEMBL2177046, “New aminoimidazoles as β-secretase (BACE-1) inhibitors showing amyloid-β (Aβ) lowering in brain” (J Med Chem, 2012).

Experiment: physchem
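Also: lipophilicity determined by reversed-phase HPLC.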

SMILES: COc1cccc(-c2cccc(C3(C4CCN(C(C)=O)CC4)N=C(C)C(N)=N3)c2)c1 (stereo unspecified)
- logD: 2.1
